Measurements reported in PubChem BioAssay AID652272 (Drosophila RNAi Screening Center, 2013)

Assay: 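Finding fly genes that regulate Hedgehog signal transduction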 (primary screen)
Cells: Drosophila clone 8 (Cl8) cells
Knock-down reagent: long dsRNA against Drosophila genes
Measured: 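Plate reader light from a firefly reporter under a ptc promoter fragment that responds to Hedgehog, with Renilla light as transfection reference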
Reading the numbers: firefly Hh reporter signal: higher = more ptc reporter light; Renilla reference signal: higher = more Renilla control light
Rule for the call: 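Hit when the z-score averaged over two replicates is under -2 or over +3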
Calls: active = hit: reporter lowered or raised; inactive = not a hit
The deposit covers about 21,000 reagents; this is an unselected part of those that have a named target and a result. Of all reagents, 503 (2.4%) got an active call. 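Raw plate light values, not normalised; calls rest on replicate z-scores that were not deposited; hits include reporter decreases as well as increases.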 Entries without a mark were called inactive. Names joined by + are all predicted targets of the reagent. Not given: the amount of reagent, the time to read-out.

target gene | dsRNA | firefly Hh reporter signal, replicate 1 | firefly Hh reporter signal, replicate 2 | firefly Hh reporter signal, replicate 3 | Renilla reference signal, replicate 1 | Renilla reference signal, replicate 2
Proc (Proctolin) | DRSC03009 | 28020 | 8987 | – | 1050 | 1027
AnxB10 (Annexin B10) | DRSC20677 | 1.61e5 | 92589 | – | 3488 | 2234
Smr (Smrter) | DRSC19495 | 38952 | 24387 | – | 1075 | 741
Smr (Smrter) | DRSC20288 | 27732 (active) | 61335 | – | 1840 | 4797
CG15353 | DRSC00383 | 1.29e5 | 6.14e5 | 1.11e5 | 2752 | 4583
twi (twist) | DRSC04720 | 65882 | 47416 | – | 1424 | 4742
sff (sugar-free frosting) | DRSC10590 | 71865 | 46413 | – | 3147 | 1431
Adsl (Adenylosuccinate lyase) | DRSC15500 | 93463 | 73189 | – | 3718 | 2776
cnc (cap-n-collar) | DRSC14676 | 5.90e5 | 1.14e5 | – | 26186 | 3485
cnc (cap-n-collar) | DRSC15289 | 1.52e5 | 70291 | – | 5808 | 3193
cnc (cap-n-collar) | DRSC15600 | 4.79e5 | 1.19e5 | – | 24080 | 3367
cnc (cap-n-collar) | DRSC15601 | 5.55e5 | 90225 | – | 25548 | 2684
CG13674 | DRSC10033 | 53472 | 1.09e5 | – | 1728 | 7253
CG15528 | DRSC15065 | 1.44e5 | 99153 | – | 6176 | 2650

Laid out differently: results already given.
CG13674 [DRSC10033] → firefly Hh reporter signal, replicate 1 = 53472; firefly Hh reporter signal, replicate 2 = 1.09e5; Renilla reference signal, replicate 1 = 1728; Renilla reference signal, replicate 2 = 7253
CG15528 [DRSC15065] → firefly Hh reporter signal, replicate 1 = 1.44e5; firefly Hh reporter signal, replicate 2 = 99153; Renilla reference signal, replicate 1 = 6176; Renilla reference signal, replicate 2 = 2650

Additional reagents follow:
target gene | dsRNA | firefly Hh reporter signal, replicate 1 | firefly Hh reporter signal, replicate 2 | firefly Hh reporter signal, replicate 3 | Renilla reference signal, replicate 1 | Renilla reference signal, replicate 2
CG7457 | DRSC10849 | 59493 | 43280 | – | 5520 | 4338
bond (james bond) | DRSC16135 | 92235 | 1.42e5 | – | 3803 | 5339
Ir54a + sub | DRSC06459 | 97516 | 43301 | – | 2838 | 2944
CG11231 (retired record) | DRSC17207 | 79258 | 2.43e5 | – | 2653 | 9687
Ir47a (Ionotropic receptor 47a) | DRSC06215 | 90539 | 48710 | – | 2045 | 4464
CG43155 | DRSC19642 | 1.24e5 | 2.54e5 | – | 5267 | 11607
CG43155 | DRSC19777 | 1.19e5 | 2.72e5 | – | 4290 | 10509
LpR1 (Lipophorin receptor 1) | DRSC15665 | 1.01e5 | 95248 | – | 2192 | 2728
LpR1 (Lipophorin receptor 1) | DRSC15669 | 5.59e5 | 1.14e5 | – | 32448 | 4427
LpR1 (Lipophorin receptor 1) | DRSC15670 | 5.35e5 | 1.10e5 | – | 28744 | 3304
